Data set [1] deals with TOP3A Ala176Val (Homo sapiens) (UniProt Q13472). The experiment in a line: EMSA. The conditions noted are these: comparable to WT; 25 mM HEPES pH 7.5, 70 mM NaCl, 100 ug/ml BSA, 1 mM DTT, 10% glycerol; 10 fmol oligo, 0-250 fmol TOP3A in 20 ul; 37 C 15 min, then ice; 8% native PAGE in 0.5x TBE at 4 C; recombinant protein; residues 16-934; protein details: N-terminal TEV-cleavable 6xHis, cleaved; label: 5' 32P; single-stranded DNA. Background: Mobility shift assays separate free from complexed probe on a gel.

Chains of the proteins cited; added tags and fusions are not shown. Residues count along the entry.
UniProt Q13472, 16-934 A176V: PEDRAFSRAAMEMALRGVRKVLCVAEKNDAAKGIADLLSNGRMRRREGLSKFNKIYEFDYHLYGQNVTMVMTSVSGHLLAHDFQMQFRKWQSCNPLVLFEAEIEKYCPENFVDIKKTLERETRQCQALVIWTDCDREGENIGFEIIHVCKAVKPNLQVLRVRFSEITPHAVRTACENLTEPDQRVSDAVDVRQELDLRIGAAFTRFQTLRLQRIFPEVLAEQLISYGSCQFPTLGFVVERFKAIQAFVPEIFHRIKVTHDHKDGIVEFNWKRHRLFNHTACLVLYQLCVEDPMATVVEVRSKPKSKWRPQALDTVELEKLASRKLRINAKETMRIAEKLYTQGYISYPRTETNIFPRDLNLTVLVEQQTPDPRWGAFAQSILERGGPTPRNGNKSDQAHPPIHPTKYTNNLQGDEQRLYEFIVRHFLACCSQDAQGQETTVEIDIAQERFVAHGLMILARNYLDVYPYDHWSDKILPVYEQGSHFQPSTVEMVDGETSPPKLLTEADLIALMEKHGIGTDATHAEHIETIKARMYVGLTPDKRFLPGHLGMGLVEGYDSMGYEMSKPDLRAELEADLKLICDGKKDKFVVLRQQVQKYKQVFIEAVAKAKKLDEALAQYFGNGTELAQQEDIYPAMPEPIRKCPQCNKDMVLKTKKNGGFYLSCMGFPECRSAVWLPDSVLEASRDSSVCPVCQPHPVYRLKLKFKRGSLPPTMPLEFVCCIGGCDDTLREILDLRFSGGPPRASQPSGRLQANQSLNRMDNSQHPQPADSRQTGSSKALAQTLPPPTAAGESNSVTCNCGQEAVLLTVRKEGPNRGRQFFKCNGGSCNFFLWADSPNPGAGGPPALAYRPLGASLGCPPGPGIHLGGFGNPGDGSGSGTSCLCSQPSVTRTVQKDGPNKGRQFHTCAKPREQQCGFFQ
UniProt Q13472, 16-934 A95V: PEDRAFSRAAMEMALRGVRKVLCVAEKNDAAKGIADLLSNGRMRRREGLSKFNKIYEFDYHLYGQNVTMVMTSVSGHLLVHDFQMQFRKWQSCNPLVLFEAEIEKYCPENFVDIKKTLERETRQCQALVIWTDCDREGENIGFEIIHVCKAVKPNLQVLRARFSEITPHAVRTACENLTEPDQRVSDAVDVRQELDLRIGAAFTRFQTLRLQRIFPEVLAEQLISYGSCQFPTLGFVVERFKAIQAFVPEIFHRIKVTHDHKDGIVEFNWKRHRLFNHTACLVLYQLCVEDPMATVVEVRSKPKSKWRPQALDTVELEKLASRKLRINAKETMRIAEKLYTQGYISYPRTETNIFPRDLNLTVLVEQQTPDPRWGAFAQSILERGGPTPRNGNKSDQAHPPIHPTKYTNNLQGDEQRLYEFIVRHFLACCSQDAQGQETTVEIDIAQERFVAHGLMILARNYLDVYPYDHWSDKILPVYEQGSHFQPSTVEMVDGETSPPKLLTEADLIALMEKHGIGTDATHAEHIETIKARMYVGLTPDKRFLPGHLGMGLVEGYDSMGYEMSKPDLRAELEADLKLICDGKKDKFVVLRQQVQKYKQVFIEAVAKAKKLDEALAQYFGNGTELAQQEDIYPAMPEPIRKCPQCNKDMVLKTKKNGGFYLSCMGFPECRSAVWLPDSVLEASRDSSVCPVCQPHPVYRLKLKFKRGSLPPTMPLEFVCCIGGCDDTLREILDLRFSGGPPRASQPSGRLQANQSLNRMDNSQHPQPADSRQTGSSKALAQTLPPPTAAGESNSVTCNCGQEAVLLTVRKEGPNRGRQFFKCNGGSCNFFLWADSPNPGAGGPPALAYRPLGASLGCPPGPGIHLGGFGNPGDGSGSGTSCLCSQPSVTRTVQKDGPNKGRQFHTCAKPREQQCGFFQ

Data set [2] addresses TOP3A Ala95Val (Homo sapiens) (UniProt Q13472). Put plainly: EMSA. The conditions noted are these: comparable to WT; 25 mM HEPES pH 7.5, 70 mM NaCl, 100 ug/ml BSA, 1 mM DTT, 10% glycerol; 10 fmol oligo, 0-250 fmol TOP3A in 20 ul; 37 C 15 min, then ice; 8% native PAGE in 0.5x TBE at 4 C; recombinant protein; residues 16-934; protein details: N-terminal TEV-cleavable 6xHis, cleaved; label: 5' 32P; single-stranded DNA.

Construct, isoform or probe ends are uncertain for at least one entry. At least one verdict rests on a figure or table, not on a statement of the authors.

In the case of “ACCACATTAACAACATAAAACCCTCATTCACACGAGAAAACACCCTCATGTTCATACACCTATCCCCCATTCTCCTCCTA [EMSA substrate 80-mer]”, the binding result in data set [1] and in data set [2] was “binds” in each case.
